From patent US11013748B2, “Budesonide prodrug” (University of Nizwa, priority 2019, dated 2021)
At least one structure is not confirmed: it was looked up by name or label, or the drawing left a doubt.

Assay: RM value by reversed phase TLC
Format: physicochemical
Conditions: methanol/chloroform/water 14:1:5, n=6

Work on `CCCC1O[C@@H]2C[C@H]3[C@@H]4CCC5=CC(=O)C=C[C@]5(C)[C@H]4[C@@H](O)C[C@]3(C)[C@]2(C(=O)CO)O1` (stereo partly shown) [Bu, budesonide] yielded an RM values of −0.478±0.076.
